The supplement of paper PMC6078165
Values are relative to the signal before dosing, not to a vehicle control; the signal also falls without drug.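 Fibroblast labels name human fibroblasts: mostly primary ones from tissues such as uterus (C12385, HUF), lung (H6013), bone (Hs27A), adrenal (HADF) and skin (WS1), plus mammary HMF and breast cancer-associated Hs343T. The cancer cells are basal-like or mesenchymal-like triple-negative breast cancer lines. The paper calls a changed response a hit when it shifts by more than 3x the replicate standard deviation. The tissue of the other fibroblasts is not given here.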

Tested on: MDAMB436
Assay: relative JC-1 red fluorescence (viability) vs pre-drug, coculture with fibroblast (fraction); higher = more viable cancer cells
Method: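 JC-1 labelled TNBC cells cocultured 1:1 (1,500 cells each) with CellTrace Violet stained primary or stromal fibroblasts in 384-well plates in FluoroBrite medium, treated with one of 42 anticancer drugs at 0.1, 1, 10 or 100 uM. JC-1 red fluorescence (mitochondrial integrity in cancer cells only) was read by plate reader every 8 h for 72 h. Values are normalised to each well's pre-drug value. The stock of one drug was tenfold lower, so its dose labels may be too high.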

O=C1c2c(O)ccc(O)c2C(=O)c2c(NCCNCCO)ccc(NCCNCCO)c21 [Mitoxantrone]
relative JC-1 red fluorescence
Conditions	8 h	16 h	24 h	32 h	40 h	48 h	56 h	64 h	72 h
1 µM, coculture fibroblast: C12385	–	–	–	–	–	0.5535	0.5488	0.5457	0.5439
1 µM, coculture fibroblast: H6013	–	–	–	–	–	0.67	0.641	0.625	0.5795
1 µM, coculture fibroblast: H6019	–	–	–	–	–	0.598	0.587	0.577	0.562
1 µM, coculture fibroblast: H6076	–	–	–	–	–	0.615	0.607	0.606	0.59
1 µM, coculture fibroblast: H6231	–	–	–	–	–	0.626	0.632	0.613	0.594
1 µM, coculture fibroblast: HADF	–	–	–	–	–	0.713	0.679	0.685	0.639
1 µM, coculture fibroblast: HCFa	–	–	–	–	–	0.696	0.652	0.642	0.593
1 µM, coculture fibroblast: HCPF	–	–	–	–	–	0.6142	0.605	0.584	0.575
1 µM, coculture fibroblast: HHSteC	–	–	–	–	0.718	0.74	0.697	0.688	0.636
1 µM, coculture fibroblast: HMF	–	–	–	–	0.582	0.554	0.55	0.529	0.51
1 µM, coculture fibroblast: HPFa	–	–	–	–	0.633	0.667	0.613	0.611	0.57
1 µM, coculture fibroblast: HUF	–	–	–	–	0.594	0.576	0.57	0.557	0.555
1 µM, coculture fibroblast: Hs5	–	–	–	–	0.685	0.659	0.668	0.653	0.638
1 µM, coculture fibroblast: Hs27A	–	–	–	–	0.723	0.79	0.735	0.738	0.667
1 µM, coculture fibroblast: Hs343T	–	–	–	–	0.632	0.602	0.606	0.595	0.59
1 µM, coculture fibroblast: WS1	–	–	–	–	0.542	0.533	0.528	0.513	0.506
10 µM, coculture fibroblast: C12385	0.498	0.402	0.356	0.347	0.339	0.34	0.3	0.254	0.202
10 µM, coculture fibroblast: H6013	0.456	0.3572	0.317	0.341	0.336	0.33	0.276	0.221	0.147
10 µM, coculture fibroblast: H6019	0.563	0.4954	0.4372	0.406	0.4016	0.402	0.387	0.3549	0.323
10 µM, coculture fibroblast: H6076	0.53	0.404	0.269	0.168	0.0987	0.0586	0.0423	0.0255	0.0212
10 µM, coculture fibroblast: H6231	0.628	0.531	0.441	0.499	0.44	0.361	0.292	0.218	0.158
10 µM, coculture fibroblast: HADF	0.416	0.305	0.28	0.321	0.3519	0.37726	0.329	0.294	0.209
10 µM, coculture fibroblast: HCFa	0.484	0.379	0.298	0.335	0.361	0.384	0.331	0.282	0.182
10 µM, coculture fibroblast: HCPF	0.626	0.5	0.452	0.322	0.259	0.165	0.0928	0.0364	0.00668
10 µM, coculture fibroblast: HHSteC	0.527	0.483	0.472	0.503	0.49	0.483	0.403	0.356	0.257
10 µM, coculture fibroblast: HMF	0.5483	0.428	0.3187	0.1888	0.17	0.102	0.0211	0.0291	0.0187
10 µM, coculture fibroblast: HPFa	0.492	0.435	0.39	0.45	0.434	0.458	0.396	0.348	0.279
10 µM, coculture fibroblast: HUF	0.536	0.426	0.422	0.4	0.37	0.347	0.3243	0.278	0.252
10 µM, coculture fibroblast: Hs5	0.641	0.537	0.433	0.379	0.366	0.256	0.228	0.144	0.0953
10 µM, coculture fibroblast: Hs27A	0.511	0.467	0.492	0.589	0.555	0.5605	0.477	0.42	0.297
10 µM, coculture fibroblast: Hs343T	0.531	0.408	0.299	0.214	0.174	0.112	0.0903	0.0393	0.0452
10 µM, coculture fibroblast: WS1	0.498	0.399	0.36	0.322	0.327	0.302	0.264	0.211	0.171
